Data as given in PubChem BioAssay AID504774 (Drosophila RNAi Screening Center, 2011).

Assay: 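Genes required for cells to withstand methyl methanesulphonate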 (primary screen)
Cell system: Drosophila Kc167 cells
Knock-down reagent: long dsRNA against Drosophila genes, about 0.25 µg dsRNA per well
Timing: about 6 days: 3 days knock-down, then 3 days with or without MMS
Challenge: methyl methanesulphonate 0.004% (w/v) for 3 days after knock-down
Read-out: 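ATP-dependent luminescence as a measure of live cells in MMS-exposed wells, quantile normalised within each plate, with replicate values also given as a mean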
Scale: mean viability with MMS: higher = more surviving cells after MMS
In all, the deposit lists about 23,000 reagents; this is a random part of those with a known target gene and a result. 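Values are quantile-normalised luminescence on an arbitrary scale; higher means more cells surviving MMS.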 Further read-outs or replicates are left out here.

Depletion of Bruce (GeneID 41260) [DRSC16015] came out at: mean viability with MMS 3.50e6.
For Josd (GeneID 31560) [DRSC18323], the entry reads mean viability with MMS 3.53e6.
With knock-down of Fam92 (GeneID 34654) [DRSC02952] the results were mean viability with MMS 3.55e6.
Against Cyp12a5 (GeneID 42293) [DRSC16621], the entry reads mean viability with MMS 3.68e6.
Silencing of Obp56f (GeneID 246668) [DRSC22270] gave: mean viability with MMS 3.49e6.
Silencing of Gle1 (GeneID 35849) [DRSC06485] came out at: mean viability with MMS 3.34e6.
CG4891 (GeneID 34948) [DRSC01936] showed mean viability with MMS 3.55e6.
Against Nmda1 (GeneID 36419) [DRSC07479], the values are mean viability with MMS 3.39e6.
For CG14357 (GeneID 41716) [DRSC14820], the values are mean viability with MMS 3.29e6.
Knock-down of CG12436 (retired record) (GeneID 39838) [DRSC09869] came out at: mean viability with MMS 3.58e6.
After knock-down of CG12436 (retired record) (GeneID 39838) [DRSC09885], the record shows mean viability with MMS 3.68e6.
Silencing of Phae1 (GeneID 34637) [DRSC02554] resulted in: mean viability with MMS 3.82e6.
Srp19 (GeneID 38815) [DRSC11288] scored mean viability with MMS 3.65e6.
Against CG5567 (GeneID 39986) [DRSC10517], the entry reads mean viability with MMS 3.62e6.
Silencing of Boot (GeneID 35919) [DRSC06412] gave: mean viability with MMS 3.69e6.

Reformatted: results already given.
{"gene": "CG12436 (retired record) (GeneID 39838)", "DRSC id": "DRSC09885", "mean viability with MMS": 3.68e6}
{"gene": "Phae1 (GeneID 34637)", "DRSC id": "DRSC02554", "mean viability with MMS": 3.82e6}
{"gene": "Srp19 (GeneID 38815)", "DRSC id": "DRSC11288", "mean viability with MMS": 3.65e6}
{"gene": "CG5567 (GeneID 39986)", "DRSC id": "DRSC10517", "mean viability with MMS": 3.62e6}

The listing continues.
Cpr30F (GeneID 318997) [DRSC02908] gave mean viability with MMS 3.63e6.
Depletion of Crtp (GeneID 44276) [DRSC04604] gave: mean viability with MMS 3.66e6.
Depletion of CG42286 (retired record) (GeneID 41002) [DRSC14357] came out at: mean viability with MMS 3.36e6.
With knock-down of CG11085 (GeneID 32213) [DRSC19374], the record shows mean viability with MMS 3.59e6.
After knock-down of CG11085 (GeneID 32213) [DRSC22832] the results were mean viability with MMS 3.51e6.
Depletion of mei-38 (GeneID 31104) [DRSC18564] came out at: mean viability with MMS 3.53e6.
After knock-down of boss (GeneID 43146) [DRSC16916] the results were mean viability with MMS 3.57e6.
Rab8 (GeneID 40168) [DRSC11261] scored mean viability with MMS 3.66e6.
CG2258 (GeneID 31729) [DRSC18222] scored mean viability with MMS 3.63e6.
After knock-down of ebi (GeneID 33212) [DRSC00816], the record shows mean viability with MMS 3.70e6.
CG42675 (GeneID 40722) [DRSC12157] showed mean viability with MMS 3.45e6.
CG42675 (GeneID 40722) [DRSC21868] gave mean viability with MMS 3.48e6.
With knock-down of msl-1 (GeneID 35121) [DRSC03573], the screen gave mean viability with MMS 3.55e6.
CG17574 (GeneID 36415) [DRSC06681] showed mean viability with MMS 3.63e6.
With knock-down of nkt (GeneID 39264) [DRSC10144] the results were mean viability with MMS 3.75e6.
CG3663 (GeneID 37944) [DRSC04402] gave mean viability with MMS 3.71e6.
RYBP (GeneID 37601) [DRSC04117] gave mean viability with MMS 3.55e6.
After knock-down of CG6980 (GeneID 42955) [DRSC16162], the record shows mean viability with MMS 3.52e6.
After knock-down of CG5644 (GeneID 39029) [DRSC10531] the results were mean viability with MMS 3.44e6.
CG5327 (GeneID 37138) [DRSC06930] showed mean viability with MMS 3.67e6.
Ssb-c31a (GeneID 34120) [DRSC03443] scored mean viability with MMS 3.60e6.
With knock-down of CG33792 (GeneID 3772111) [DRSC05355] the results were mean viability with MMS 3.68e6.
Against eIF3f2 (GeneID 35547) [DRSC04903], the entry reads mean viability with MMS 3.40e6.
Against Cpr78Ca (GeneID 40352) [DRSC11651], the values are mean viability with MMS 3.51e6.
Against CG33769 (GeneID 3772499) [DRSC11716], the entry reads mean viability with MMS 3.39e6.
Against CR18275 (GeneID 8674032) [DRSC18151] the deposit lists mean viability with MMS 3.60e6.
Pka-R2 (GeneID 36041) [DRSC07509] showed mean viability with MMS 3.50e6.
Silencing of CG30389 (GeneID 37410) [DRSC04077] gave: mean viability with MMS 3.33e6.
CG30389 (GeneID 37410) [DRSC04452] scored mean viability with MMS 3.44e6.
Silencing of CG18598 (GeneID 42188) [DRSC15356] gave: mean viability with MMS 3.51e6.
